Measurements: publication PMC8855811
No constants are given. Whether binding was seen depends on the method and setting. Binding seen in cells or lysates may run through a third protein. Some binding calls cover weakened binding; strength is not graded here.

By UniProt entry, the sequences of proteins in these tests, tags left out.
UniProt Q5SF07: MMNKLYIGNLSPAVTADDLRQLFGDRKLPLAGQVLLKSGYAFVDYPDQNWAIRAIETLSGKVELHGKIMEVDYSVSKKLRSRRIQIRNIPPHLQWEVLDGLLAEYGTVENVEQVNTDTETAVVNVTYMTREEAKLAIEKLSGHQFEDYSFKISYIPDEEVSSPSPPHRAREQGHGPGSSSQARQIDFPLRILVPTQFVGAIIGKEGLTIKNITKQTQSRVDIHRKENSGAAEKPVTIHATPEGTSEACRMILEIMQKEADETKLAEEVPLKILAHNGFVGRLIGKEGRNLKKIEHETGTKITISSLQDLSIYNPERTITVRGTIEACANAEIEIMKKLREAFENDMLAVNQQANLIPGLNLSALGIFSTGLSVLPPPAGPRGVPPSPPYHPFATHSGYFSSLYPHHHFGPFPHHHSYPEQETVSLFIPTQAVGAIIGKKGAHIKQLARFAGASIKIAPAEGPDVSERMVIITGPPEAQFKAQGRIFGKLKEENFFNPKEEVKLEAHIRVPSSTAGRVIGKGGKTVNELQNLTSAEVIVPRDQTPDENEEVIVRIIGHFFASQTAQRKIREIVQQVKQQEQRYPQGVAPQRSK
UniProt P70372: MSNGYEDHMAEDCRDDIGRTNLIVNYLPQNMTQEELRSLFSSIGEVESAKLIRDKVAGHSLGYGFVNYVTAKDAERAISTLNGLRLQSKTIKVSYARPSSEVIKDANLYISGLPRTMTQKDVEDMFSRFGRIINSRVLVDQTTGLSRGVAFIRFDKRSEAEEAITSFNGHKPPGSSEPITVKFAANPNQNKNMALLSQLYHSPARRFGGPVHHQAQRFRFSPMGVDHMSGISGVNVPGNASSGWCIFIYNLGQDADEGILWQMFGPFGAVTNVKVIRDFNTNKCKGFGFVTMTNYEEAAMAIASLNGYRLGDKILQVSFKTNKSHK

Molecular target: IGF-2 mRNA-binding protein 2 (mouse (endogenous in MEFs)) (UniProt Q5SF07)
Test: co-IP; MEF lysates, with or without RNase A treatment, immunoprecipitated with anti-IMP2 Abs; HuR detected in the precipitate

Hu-antigen R (from UniProt P70372 1-326)
binding: binds
